The record followed here is article PMC6819324.

The exact form of at least one protein or probe is not confirmed. Negatives hold for the conditions tested. Protein sequences can lack the tags named with them.

This data set has as its target T1, AdpAlin (Streptomyces lincolnensis NRRL 2936) (UniProt A0A1B1M9Y0).
T1 sequence (looked up, limits assumed): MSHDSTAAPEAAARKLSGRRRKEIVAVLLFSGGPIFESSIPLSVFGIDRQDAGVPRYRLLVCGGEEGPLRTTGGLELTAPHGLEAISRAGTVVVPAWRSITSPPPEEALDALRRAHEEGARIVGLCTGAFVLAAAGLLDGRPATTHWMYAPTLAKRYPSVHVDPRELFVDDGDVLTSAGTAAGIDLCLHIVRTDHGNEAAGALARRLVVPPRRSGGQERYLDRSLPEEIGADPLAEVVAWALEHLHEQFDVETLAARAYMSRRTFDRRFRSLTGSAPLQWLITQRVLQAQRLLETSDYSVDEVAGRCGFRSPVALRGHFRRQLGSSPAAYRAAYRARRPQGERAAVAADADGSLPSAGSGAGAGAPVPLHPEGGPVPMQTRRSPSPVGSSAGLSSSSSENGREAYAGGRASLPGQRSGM
Nature of the data set: EMSA. The conditions noted are these: EMSA: 20 mM Tris-HCl pH 7.5, 5% glycerol, 0.1% BSA, 2.5 nM 5'-biotin probe, AdpAlin 0-6.4 uM (12.8 uM for probe-neg), 200-fold unlabeled competitor, recombinant protein, label: 5'-biotin, probe letters rebuilt from the primers and the genome.

In the case of “AGCCAGTGACGATAAGGATTTGTTCTAGGTAAACGCCCGGGCTCTCAAACAAGGTTAAAAACTTCCACAGTACTGCCCCAAATGCACACATCCAGGCATAAGTGAGAAACGTAGCGGAAGGCAGGGAACGTCATGCTCTAAAGATTCGTCGCTCCGAAAGGAGGGCGTCTTGCGTGTTAATCGGCCGTTGACATATGCTCATTTCACCTTGCGGAATGAAATGAGCCCAGCTGTTGTTGCCGCTTTGGATGGTCCGGATCCGGCCGGTTTCAAGATCTCCAGGATCCCCTGGATAATTAATTGACCGGCCTCCTACACTCTGATCCGTACTTGATACATTGCTTATCGTCACTGGCT (double strand) [mlmbUp-B]”, the binding result (up to 3.2 uM protein) is on record as “no binding”. As to “AGCCAGTGACGATAAGGATTTGTTCTAGGTAAACGCCCGGGCTCTCAAACAAGGTTAAAAACTTCCACAGTACTGCCCCAAATGCACACATCCAGGCATAAGTGAGAAACGTAGCGGAAGGCAGGGAACGTCATGCTCTAAAGATTCGTCGCTCCGAAAGGAGGGCGTCTTGCGTGTTAATCGGCCGTTGACATATGCTCATTTCACCTTGCGGAATGAAATGAGCCCAGCTGTTTGGCCGTTGGGTTGCCGCTTTGGATGGTCCGGATCCGGCCGGTTTCAAGATCTCCAGGATCCCCTGGATAATTAATTGACCGGCCTCCTACACTCTGATCCGTACTTGATACATTGCTTATCGTCACTGGCT (double strand) [lmbUp-B]”, the binding result is listed as “binds”.

As for “AGCCAGTGACGATAAGGGTTCCCGTGGTGCTCCTCTGGTACGGCACCTCGCTCGCCGGCGCCGCCGGCACCGCGCTCGGACTGGCCGCCGTCACCGCCGTCTGCCGTATCCTCCTGCGCCAGTCGGAGCGCGGTGCGGCACGGCTACTGGCCGAAGAACGGGCCCCCCATCGCGGCCACCGCCACCGGGCCGGAACGGGGACACACAGGGGTGGGCGGCACGGTGGGGGAAATACACCGGTCGGCTGACCGGTTTCCGCGCACGCGCCCGACTCTTTTCAGCCAACTTCCGACCACCTTATCGTCACTGGCT (double strand) [adpAp-B]”, the binding result was “binds”.
